According to paper PMC9648417:
Results are given in words; binding and its absence hold for the method and conditions named. In cells and extracts the contact can be indirect. Here binding means that the protein was enriched with, or labelled near, the bait; the list need not be complete. Tags and fused reporters may be left off the sequences shown.

Molecular target: T1, Schlafen family member 11 (SLFN11), Myc-FLAG-tagged, doxycycline-inducible (human) (UniProt Q7Z7L1)
T1 sequence: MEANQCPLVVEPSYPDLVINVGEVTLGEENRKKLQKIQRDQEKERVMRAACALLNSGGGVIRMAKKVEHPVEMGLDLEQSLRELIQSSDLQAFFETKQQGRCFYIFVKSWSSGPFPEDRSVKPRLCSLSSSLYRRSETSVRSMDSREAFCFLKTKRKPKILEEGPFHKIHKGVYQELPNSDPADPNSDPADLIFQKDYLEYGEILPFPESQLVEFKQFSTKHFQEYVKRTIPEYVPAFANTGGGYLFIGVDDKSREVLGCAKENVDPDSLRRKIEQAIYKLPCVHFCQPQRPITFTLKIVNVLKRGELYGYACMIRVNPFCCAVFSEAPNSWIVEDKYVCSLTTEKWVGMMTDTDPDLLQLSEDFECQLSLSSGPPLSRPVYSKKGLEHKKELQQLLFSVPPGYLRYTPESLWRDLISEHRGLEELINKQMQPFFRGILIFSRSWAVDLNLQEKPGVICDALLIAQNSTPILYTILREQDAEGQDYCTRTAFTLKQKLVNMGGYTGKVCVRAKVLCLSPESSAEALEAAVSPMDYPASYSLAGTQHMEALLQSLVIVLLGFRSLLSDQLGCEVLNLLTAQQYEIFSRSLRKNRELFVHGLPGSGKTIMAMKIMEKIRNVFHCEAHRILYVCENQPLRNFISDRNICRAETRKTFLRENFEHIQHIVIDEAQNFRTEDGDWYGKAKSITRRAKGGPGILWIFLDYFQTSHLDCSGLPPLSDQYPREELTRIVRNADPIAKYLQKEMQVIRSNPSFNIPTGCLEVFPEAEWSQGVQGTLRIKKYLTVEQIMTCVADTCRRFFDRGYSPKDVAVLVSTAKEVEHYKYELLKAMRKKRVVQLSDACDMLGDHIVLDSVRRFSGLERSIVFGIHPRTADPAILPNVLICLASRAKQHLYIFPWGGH
Assay: affinity purification with mass spectrometry; IP of Myc-tagged SLFN11 with Myc-Tag-conjugated sepharose beads from NP-40 lysates of DOX-induced LN229 cells, untreated or irradiated with 8 Gy for 30 minutes; no-DOX samples as negative controls; LC/MS-MS

B1: NFκB2 (NFκB2/p100) (protein, UniProt Q00653-1 1-900)
chain: MESCYNPGLDGIIEYDDFKLNSSIVEPKEPAPETADGPYLVIVEQPKQRGFRFRYGCEGPSHGGLPGASSEKGRKTYPTVKICNYEGPAKIEVDLVTHSDPPRAHAHSLVGKQCSELGICAVSVGPKDMTAQFNNLGVLHVTKKNMMGTMIQKLQRQRLRSRPQGLTEAEQRELEQEAKELKKVMDLSIVRLRFSAFLRASDGSFSLPLKPVISQPIHDSKSPGASNLKISRMDKTAGSVRGGDEVYLLCDKVQKDDIEVRFYEDDENGWQAFGDFSPTDVHKQYAIVFRTPPYHKMKIERPVTVFLQLKRKRGGDVSDSKQFTYYPLVEDKEEVQRKRRKALPTFSQPFGGGSHMGGGSGGAAGGYGGAGGGGSLGFFPSSLAYSPYQSGAGPMGCYPGGGGGAQMAATVPSRDSGEEAAEPSAPSRTPQCEPQAPEMLQRAREYNARLFGLAQRSARALLDYGVTADARALLAGQRHLLTAQDENGDTPLHLAIIHGQTSVIEQIVYVIHHAQDLGVVNLTNHLHQTPLHLAVITGQTSVVSFLLRVGADPALLDRHGDSAMHLALRAGAGAPELLRALLQSGAPAVPQLLHMPDFEGLYPVHLAVRARSPECLDLLVDSGAEVEATERQGGRTALHLATEMEELGLVTHLVTKLRANVNARTFAGNTPLHLAAGLGYPTLTRLLLKAGADIHAENEEPLCPLPSPPTSDSDSDSEGPEKDTRSSFRGHTPLDLTCSTKVKTLLLNAAQNTMEPPLTPPSPAGPGLSLGDTALQNLEQLLDGPEAQGSWAELAERLGLRSLVDTYRQTTSPSGSLLRSYELAGGDLAGLLEALSDMGLEEGVRLLRGPETRDKLPSTAEVKEDSAYGSQSVEQEAEKLGPPPEPPGGLCHGHPQPQVH
binding: binds
